Measurements: US20260232769A1 (WUXI BIOLOGICS IRELAND, published 2026)
Results are given in words; binding and its absence hold for the method and conditions named. Some results given as binding are weak or reduced against the parent protein; the word gives no strength.

Amino acid sequences for entries named in this document (tags omitted). A change or cut given only in a name is not applied to a line headed by its entry. Residues count along the entry.
UniProt Q15116, residues 25-288: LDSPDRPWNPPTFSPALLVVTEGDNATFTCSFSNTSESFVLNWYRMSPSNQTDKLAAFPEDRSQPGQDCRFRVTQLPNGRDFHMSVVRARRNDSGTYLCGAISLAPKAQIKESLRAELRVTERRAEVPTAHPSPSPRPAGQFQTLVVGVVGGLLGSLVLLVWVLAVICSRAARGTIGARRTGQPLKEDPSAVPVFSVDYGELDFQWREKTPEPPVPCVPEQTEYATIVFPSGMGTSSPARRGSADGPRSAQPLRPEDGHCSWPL

Target: PD-1 (on CHO-PD1 engineered cell line; on activated CD8+ T cells) (UniProt Q15116)
Test: flow cytometry (FACS, MFI) on CHO-PD1 cells, PE-anti-human Fc detection

Row | binding | Binder
1 | binds | W3XX115-U3T3.F114-1.uIgG4V322 (antibody) heavy 1: QVQLVQSGAEVKKPGSSVKVSCKASGFTFTTYYISWVRQAPGQGLEYLGYINMGSGGTNYNEKFKGRVTITADKSTSTAYMELSSLRSEDTAVYYCAIIGYFDYWGQGTMVTVSSASTKGPSVFPLAPCSRSTSESTAALGCLVKDYFPEPVTVSWNSGALTSGVHTFPAVLQSSGLYSLSSVVTVPSSSLGTKTYTCNVDHKPSNTKVDKRVESKYGPPCPPCPAPEAAGGPSVFLFPPKPKDTLMISRTPEVTCVVVDVSQEDPEVQFNWYVDGVEVHNAKTKPREEQFNSTYRVVSVLTVLHQDWLNGKEYKCKVSNKGLPSSIEKTISKAKGQPREPQVYTLPPCQEEMTKNQVSLWCLVKGFYPSDIAVEWESNGQPENNYKTTPPVLDSDGSFFLYSRLTVDKSRWQEGNVFSCSVMHEALHNHYTQKSLSLSLGGGGGSGGGGSGGGGSGGGGSAPTSSSTKKTQLQLEHLLLDLQMILNGINNYKNPKLTRMLTAKFAMPKKATELKHLQCLEEELKPLEEVLNGAQSKNFHLRPRDLISNINVIVLELKGSETTFMCEYADETATIVEFLNRWITFCQSIISTLT heavy 2: QVQLVQSGAEVKKPGSSVKVSCKASGFTFTTYYISWVRQAPGQGLEYLGYINMGSGGTNYNEKFKGRVTITADKSTSTAYMELSSLRSEDTAVYYCAIIGYFDYWGQGTMVTVSSASTKGPSVFPLAPCSRSTSESTAALGCLVKDYFPEPVTVSWNSGALTSGVHTFPAVLQSSGLYSLSSVVTVPSSSLGTKTYTCNVDHKPSNTKVDKRVESKYGPPCPPCPAPEAAGGPSVFLFPPKPKDTLMISRTPEVTCVVVDVSQEDPEVQFNWYVDGVEVHNAKTKPREEQFNSTYRVVSVLTVLHQDWLNGKEYKCKVSNKGLPSSIEKTISKAKGQPREPQVCTLPPSQEEMTKNQVSLSCAVKGFYPSDIAVEWESNGQPENNYKTTPPVLDSDGSFFLVSRLTVDKSRWQEGNVFSCSVMHEALHNHYTQKSLSLSLGK light: DVVMTQSPLSLPVTLGQPASISCRSSQSLLDSDGGTYLYWFQQRPGQSPRRLIYLVSTLGSGVPDRFSGSGSGTDFTLKISRVEAEDVGVYYCMQLTHWPYTFGQGTKLEIKRTVAAPSVFIFPPSDEQLKSGTASVVCLLNNFYPREAKVQWKVDNALQSGNSQESVTEQDSKDSTYSLSSTLTLSKADYEKHKVYACEVTHQGLSSPVTKSFNRGEC
2 | binds | W3XX115-T2U3.E44-15.uIgG4V322 (Fc fusion) APTSSSTKKTQLQLEHLLLDLQMILNGINNYKNPKLTRMLTVKFYMPKKATELKHLQCLEEELKPLEEVLNLAQSKNFHLRPRDLISNINVIVLELKGSETTFMCEYADETATIVEFLNRWITFCQSIIESKYGPPCPPCPAPEAAGGPSVFLFPPKPKDTLMISRTPEVTCVVVDVSQEDPEVQFNWYVDGVEVHNAKTKPREEQFNSTYRVVSVLTVLHQDWLNGKEYKCKVSNKGLPSSIEKTISKAKGQPREPQVYTLPPCQEEMTKNQVSLWCLVKGFYPSDIAVEWESNGQPENNYKTTPPVLDSDGSFFLYSRLTVDKSRWQEGNVFSCSVMHEALHNHYTQKSLSLSLGK heavy: QVQLVQSGAEVKKPGSSVKVSCKASGFTFTTYYISWVRQAPGQGLEYLGYINMGSGGTNYNEKFKGRVTITADKSTSTAYMELSSLRSEDTAVYYCAIIGYFDYWGQGTMVTVSSASTKGPSVFPLAPCSRSTSESTAALGCLVKDYFPEPVTVSWNSGALTSGVHTFPAVLQSSGLYSLSSVVTVPSSSLGTKTYTCNVDHKPSNTKVDKRVESKYGPPCPPCPAPEAAGGPSVFLFPPKPKDTLMISRTPEVTCVVVDVSQEDPEVQFNWYVDGVEVHNAKTKPREEQFNSTYRVVSVLTVLHQDWLNGKEYKCKVSNKGLPSSIEKTISKAKGQPREPQVCTLPPSQEEMTKNQVSLSCAVKGFYPSDIAVEWESNGQPENNYKTTPPVLDSDGSFFLVSRLTVDKSRWQEGNVFSCSVMHEALHNHYTQKSLSLSLGK light: DVVMTQSPLSLPVTLGQPASISCRSSQSLLDSDGGTYLYWFQQRPGQSPRRLIYLVSTLGSGVPDRFSGSGSGTDFTLKISRVEAEDVGVYYCMQLTHWPYTFGQGTKLEIKRTVAAPSVFIFPPSDEQLKSGTASVVCLLNNFYPREAKVQWKVDNALQSGNSQESVTEQDSKDSTYSLSSTLTLSKADYEKHKVYACEVTHQGLSSPVTKSFNRGEC
